The nature of this series: Boc solid-phase peptide synthesis; Boc-Leu-PAM resin; DCC and HOBT in methyl-2-pyrrolidinone. The following applies: whole synthesis, HPLC at 214 (Vydac C18); amino acid composition analysis; FAB mass spectral analysis, scale 0.5 mmol.

From patent US6391305B1 (priority 1999, dated 2002) come the findings set out here.

2-HO-Ac-Ser-Ser-Ser-Chg-Ser-Leu-OH: the “final HPLC purity” value was “at least 99% (HPLC)”.
